# About 7,700 (2.3%) of roughly 330,000 compounds were called active. The shares of active, inactive and inconclusive entries below differ from those in the screen. The call rests on the fitted dose curve; in most records, active means well fitted inhibition curve with a large enough effect; inconclusive means small, poorly fitted or top-dose-only effect, or effect the other way; inactive means flat fitted curve, though single readings scatter. A potency beside an inconclusive call is a rough fit, not a confirmed value.
# Assay: qHTS screen for small molecules that inhibit ELG1-dependent DNA repair in human embryonic kidney (HEK293T) cells expressing luciferase-tagged ELG1; further: nearly all actives have a fitted effect of over 55% in size
# Conditions: HEK293T ELG1-luciferase reporter, luminescence, 16 h, DNA damage induced by 5-fluorouridine; series mostly up to 46.1 µM
# Summary of the method: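 Quantitative HTS, concentration-response format. 2,000 cells/well co-treated with 5-fluorouridine and compound, 16 hr in 5% CO2 at 37 °C; ONE-Glo luminescence read after 30 min.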
# Potency means the concentration at half of the fitted maximal effect.
row,Compound,Potency
1,CCc1cc2c(=O)c(-c3cnn(-c4ccccc4)c3)c(C(F)(F)F)oc2c(CN(C)C)c1O,inactive
2,O=C(CCC(=O)c1ccc(F)cc1)Nc1cc(Cl)cc(Cl)c1,inactive
3,Cc1cc(/C=C2\SC(=S)NC2=O)c(C)n1-c1ccc(O)cc1,"inconclusive: 4.61 µM [activator, full curve]"
4,Cc1ccc2nc(NC(=O)c3ccc4ncsc4c3)sc2c1,"inconclusive: 1.84 µM [activator, full curve]"
5,O=C(Nc1ccc2c(c1)OCO2)c1ccc(CO)cc1,"inconclusive: 8.2 µM [activator, partial curve]"
6,COc1ccc(CCNC(=O)c2cccc(S(=O)(=O)N3CCCCC3)c2)cc1,"inconclusive: 29.1 µM [inhibitor, single point]"
7,CN(C)C(=O)CCc1ccc2c3c([nH]c2c1)[C@]1(CCc2ccccc2)[C@@H](C(=O)N2CCCCC2)C[C@H](CC(=O)NCc2cccc(C(F)(F)F)c2)C(=O)N1CC3,"inconclusive: 29.1 µM [inhibitor, single point]"
8,O=C(N/N=C/c1ccc2cccc(OCc3ccccc3)c2n1)c1ccc(Cl)cc1,"inconclusive: 4.61 µM [inhibitor, single point]"
9,CCOc1ccc(N2C(=O)CC(Sc3nccc(C)n3)C2=O)cc1 (configuration not stated),inactive
10,CCN(CC)S(=O)(=O)c1ccc(OC)c(NC(=O)C(Cc2ccccc2)N2C(=O)c3ccccc3C2=O)c1 (configuration not stated),"inconclusive: 23.1 µM [inhibitor, partial curve]"
11,Cc1ccc(C)c(OCCCC(=O)Nc2ccc(N3CCOCC3)cc2)c1,"inconclusive: 1.16 µM [inhibitor, single point]"
12,CC(=O)Nc1ccc(S(=O)(=O)N2CCC(C(=O)NCCC(=O)Nc3ccccc3)CC2)cc1,"inconclusive: 16.4 µM [activator, partial curve, poor fit]"
13,NC1=NC(c2ccccc2C(F)(F)F)N(c2ccc(F)c(Cl)c2)C(N)=N1 (configuration not stated),inactive
14,Cc1cc(C)c2c(-n3cccc3)c(NC(=O)OCc3ccccc3)sc2n1,"inconclusive: 23.1 µM [inhibitor, partial curve]"
15,CCCc1nn2c(=O)cc(CSCC(=O)Nc3ccccc3OC)nc2s1,inactive
16,CCOC(=O)c1c(C)[nH]c(C(=O)COC(=O)c2cccnc2Cl)c1C,"inconclusive: 7.3 µM [activator, partial curve]"
17,CCn1nc(C)c(NC(=O)/C=C/c2ccc(OC)c(COc3ccc(Cl)cc3Br)c2)c1C,"inconclusive: 4.61 µM [inhibitor, full curve]"
18,O=C(O)c1cc(C2CC2)nc2ccccc12,inactive
19,Cc1scc(C(=O)N/N=C/c2ccco2)c1C,"inconclusive: 18.4 µM [activator, partial curve]"
20,O=C(Nc1cccc(-c2nnc(-c3ccco3)o2)c1)C(c1ccccc1)c1ccccc1,active: 13 µM
21,COc1ccc(-c2nnc(SCC#N)o2)cc1,"inconclusive: 2.91 µM [activator, full curve]"
22,O=C(Nc1ccc(N2CCN(C(=O)c3ccco3)CC2)cc1)c1ccc([N+](=O)[O-])cc1Cl,active: 4.61 µM
23,O=C(CSc1nnc(-c2ccc(O)cc2)o1)Nc1ccc2c(c1)OCCO2,"inconclusive: 8.2 µM [activator, partial curve]"
24,CCCCC(=O)NC(=S)NNC(=O)CC,inactive

row,Compound,Potency
1,Cc1c(C(=O)N2CCc3ccccc3C2)oc2ccc(S(=O)(=O)N3CCCCCC3)cc12,active: 16.4 µM
2,CCCCOc1ccc(-c2ncc(N)cn2)cc1,"inconclusive: 16.4 µM [activator, partial curve]"
3,COc1cc(NC(=S)N2CCN(C)CC2)cc(OC)c1,inactive
4,COc1ccc(C(=O)Nc2ccc(C(=O)Nc3cccc(C)c3)cc2)cc1,"inconclusive: 7.3 µM [activator, partial curve]"
5,Cc1ccn(CC(=O)NC2CC(C)(C)Cc3c2cnn3-c2ccc(F)cc2)n1 (configuration not stated),inactive
6,Cc1ccnc(SCC(=O)Nc2sc3c(c2C#N)CCCC3)n1,inactive
7,O=C(Cc1ccc(Cl)cc1)NC1CCCCCC1,"inconclusive: 11.6 µM [activator, partial curve]"
8,Cc1cccc(NC(=O)CN(c2ccc(F)cc2)S(C)(=O)=O)c1,"inconclusive: 7.3 µM [inhibitor, partial curve]"
9,CC(=O)N1CCN(S(=O)(=O)c2cccc(C(=O)N(Cc3ccccc3)c3ccc(C)cc3)c2)CC1,inactive
10,O=C(Cc1ccc2c(c1)CCCC2)Nc1ccccc1Cl,"inconclusive: 16.4 µM [activator, single point]"
11,CCOC(=O)C1CCCN(C(c2ccccn2)c2c(C)[nH]c3ccccc23)C1 (configuration not stated),inactive
12,COc1cc(C(C[N+](=O)[O-])c2c(-c3ccccc3)cc3ccccn23)cc(OC)c1OC (configuration not stated),"inconclusive: 16.4 µM [activator, partial curve, poor fit]"
13,Cc1ccc(S(=O)(=O)NC(=O)Nc2ccc(N(C)C)cc2)cc1,"inconclusive: 1.83 µM [activator, partial curve]"
14,O=C(CSCc1ccccc1)N/N=C/c1ccc(OCC(=O)N2CCCCC2)cc1,inactive
15,CCCCOC(=O)Nc1ccccc1C(=O)OC,"inconclusive: 0.0231 µM [activator, full curve, poor fit]"
16,CCOc1cc(/C=N/N2CCN(Cc3ccccc3)CC2)ccc1O,inactive
17,O=c1c2ccccc2nc(/C=C/c2ccc([N+](=O)[O-])o2)n1CCCO,active: 14.6 µM
18,O=C(O)c1ccc2c(=O)n3cc(C(=O)c4ccccc4O)cc(Cl)c3nc2c1,"inconclusive: 32.6 µM [inhibitor, single point]"
19,Cc1cc(C)c(C)c(S(=O)(=O)NC2CCN(Cc3ccccc3)CC2)c1C,inactive
20,FCCCOc1ccc(-c2nccc(-c3ccc(F)cc3)n2)cc1,inactive
21,NC(=O)C1CC(O)CN1c1nc(CN2CCOCC2)nc2scc(-c3ccccc3)c12 (configuration not stated),inactive
22,COC(=O)C1CCN(C(=O)CC(NC(=O)C(F)(F)F)c2cccs2)CC1 (configuration not stated),inactive
23,O=C(CCNC(=O)c1ccccc1Cl)Nc1cccc(S(=O)(=O)N2CCCC2)c1,inactive

# As a working copy, 13 of the compounds above.
row,Compound,Potency
9,CC(=O)N1CCN(S(=O)(=O)c2cccc(C(=O)N(Cc3ccccc3)c3ccc(C)cc3)c2)CC1,inactive
10,O=C(Cc1ccc2c(c1)CCCC2)Nc1ccccc1Cl,"inconclusive: 16.4 µM [activator, single point]"
11,CCOC(=O)C1CCCN(C(c2ccccn2)c2c(C)[nH]c3ccccc23)C1 (configuration not stated),inactive
12,COc1cc(C(C[N+](=O)[O-])c2c(-c3ccccc3)cc3ccccn23)cc(OC)c1OC (configuration not stated),"inconclusive: 16.4 µM [activator, partial curve, poor fit]"
13,Cc1ccc(S(=O)(=O)NC(=O)Nc2ccc(N(C)C)cc2)cc1,"inconclusive: 1.83 µM [activator, partial curve]"
14,O=C(CSCc1ccccc1)N/N=C/c1ccc(OCC(=O)N2CCCCC2)cc1,inactive
15,CCCCOC(=O)Nc1ccccc1C(=O)OC,"inconclusive: 0.0231 µM [activator, full curve, poor fit]"
16,CCOc1cc(/C=N/N2CCN(Cc3ccccc3)CC2)ccc1O,inactive
17,O=c1c2ccccc2nc(/C=C/c2ccc([N+](=O)[O-])o2)n1CCCO,active: 14.6 µM
18,O=C(O)c1ccc2c(=O)n3cc(C(=O)c4ccccc4O)cc(Cl)c3nc2c1,"inconclusive: 32.6 µM [inhibitor, single point]"
19,Cc1cc(C)c(C)c(S(=O)(=O)NC2CCN(Cc3ccccc3)CC2)c1C,inactive
20,FCCCOc1ccc(-c2nccc(-c3ccc(F)cc3)n2)cc1,inactive
21,NC(=O)C1CC(O)CN1c1nc(CN2CCOCC2)nc2scc(-c3ccccc3)c12 (configuration not stated),inactive

# Reference: PubChem BioAssay AID504467 (National Center for Advancing Translational Sciences (NCATS), 2011)
